In patent US20240197928A1, “SODIUM-DEPENDENT GLUCOSE TRANSPORTER 2 AS A DIAGNOSTIC AND THERAPEUTIC TARGET FOR PRE-MALIGNANT LESIONS” (THE REGENTS OF THE UNIVERSITY OF CALIFORNIA, priority 2019, published 2024):

Test system: lung tumors in KPluc mice
Experiment: Me4FDG and FDG PET/CT imaging of lung nodules in KPluc mice
Type: in vivo, mouse
Details: for contrast-to-noise ratio (CNR): PET

For CO[C@H]1O[C@H](CO)[C@@H]([18F])[C@H](O)[C@H]1O [Me4FDG, methyl 4-deoxy-4-[18F] fluoro-alpha-D-glucopyranoside], the “diameter of the smallest lesion with a CNR≥4” value (lesion t2, KPluc mouse) was 1.0 mm, the “volume of the smallest lesion with a CNR≥4” value (lesion t2, KPluc mouse) was 0.52 mm3 and the “contrast-to-noise ratio (CNR)” value (tumor t2 (printed 12), KPluc mouse) was 4.47. For the same compound, the “contrast-to-noise ratio (CNR)” value (tumor t3, KPluc mouse) was 7.83.
